The list shows only some results of the screen, not a fair sample: it gathers tests that were run many times, whatever their T/C, doses with no T/C, and many T/C values between a quarter and a half above the control. Further doses and runs are listed elsewhere. T/C: endpoint of the treated group in % of that of the vehicle group. Some entries give survivors of the animals treated and no T/C: the source files T/C as zero there, which appears to mark a toxic dose or a test without result, not a measured value. Some doses without a T/C left all or most animals alive at the check, yet need not have been tolerated: the source hardly ever lists a survival T/C far under the control, and the zero likely stands for such cases as well. Counts of survivors are from the toxicity check (mostly the fifth day) where no day follows; animals may have died later. Schedule codes are those of the source, read here as Q, the interval in days (D) or hours (H), X, the number of doses. Some doses were run more than once; the results are listed from low to high. Marks such as (2×) stand for listed records that agree. For survival time, the PubChem record calls one and a half times the control and up active, and a quarter to a half above the control has no call in these data; cut-offs in other NCI protocols can differ. Some T/C values are followed by the survivors on the day toxicity was checked, most often the fifth; where none is given, no animal had died by that day.
System: P388 leukemia ip, CD2F1 mice, survival T/C
Experiment: NCI In Vivo Anticancer Drug Screen. Data for tumor model P388 Leukemia (intraperitoneal) in CD2F1 (CDF1) mice
Conditions: T/C endpoint: median survival time, higher T/C = longer survival
[1] = dose: 50.0 mg/kg/injection, schedule: Q01DX005 (ip), vehicle: saline with Tween-80
[2] = dose: 100.0 mg/kg/injection, schedule: Q01DX005 (ip), vehicle: saline with Tween-80
[3] = dose: 200.0 mg/kg/injection, schedule: Q01DX005 (ip), vehicle: saline with Tween-80
[4] = dose: 400.0 mg/kg/injection, schedule: Q04DX003 (ip), vehicle: Klucel (hydroxypropylcellulose) (HPC)
[5] = dose: 50.0 mg/kg/injection, schedule: Q01DX009 (ip), vehicle: Klucel (hydroxypropylcellulose) (HPC)
[6] = dose: 50.0 mg/kg/injection, schedule: Q01DX009 (ip), vehicle: saline
[7] = dose: 100.0 mg/kg/injection, schedule: Q01DX009 (ip), vehicle: saline
[8] = dose: 200.0 mg/kg/injection, schedule: Q01DX009 (ip), vehicle: saline
[9] = dose: 8.0 mg/kg/injection, schedule: Q01DX009 (ip), vehicle: saline
[10] = dose: 50.0 mg/kg/injection, schedule: Q04DX003 (ip), vehicle: Klucel (hydroxypropylcellulose) (HPC)
[11] = dose: 100.0 mg/kg/injection, schedule: Q04DX003 (ip), vehicle: Klucel (hydroxypropylcellulose) (HPC)
[12] = dose: 200.0 mg/kg/injection, schedule: Q04DX003 (ip), vehicle: Klucel (hydroxypropylcellulose) (HPC)

## COC(=O)C1C(=O)COC1C (stereo unspecified)
dose: 100.0 mg/kg/injection, schedule: Q01DX005 (ip), vehicle: saline
  survivor count: 5 of 6

## O=C(CCCN1CCC(C(O)c2ccc(F)cc2)CC1)c1ccc(F)cc1 (stereo unspecified)
dose: 12.5 mg/kg/injection, schedule: Q01DX005 (ip), vehicle: saline with Tween-80
  survivor count: 0 of 5
dose: 25.0 mg/kg/injection, schedule: Q01DX005 (ip), vehicle: saline with Tween-80
  survivor count: 0 of 5
[1]
  survivor count: 0 of 5
[2]
  survivor count: 2 of 5
[3]
  survivor count: 0 of 5

## Cc1ccc(C(=O)NNC(O)C(F)(F)F)cc1 (stereo unspecified)
[4]
  survivor count: 5 of 6

## O=C(NCC(CC(NC(=O)c1ccccc1)C(=O)O)NC(=O)c1ccccc1)c1ccccc1 (stereo unspecified)
[5]
  survivor count: 6 of 6

## O=C(C=C(C(F)(F)F)C(F)(F)F)c1c2ccccc2cc2ccccc12
dose: 6.25 mg/kg/injection, schedule: Q01DX009 (ip), vehicle: DMSO
  survivor count: 4 of 5
dose: 12.5 mg/kg/injection, schedule: Q01DX009 (ip), vehicle: DMSO
  survivor count: 1 of 6
dose: 25.0 mg/kg/injection, schedule: Q01DX009 (ip), vehicle: DMSO
  survivor count: 0 of 6

## Cc1ccc(S(=O)(=O)OC2COC(OCc3ccccc3)C(OS(=O)(=O)c3ccc(C)cc3)C2O)cc1 (stereo unspecified)
[3]
  survivor count: 6 of 6

## COC1=CC(=O)c2cc3ccc(OC)c(N)c3nc2C1=O
dose: 400.0 mg/kg/injection, schedule: Q01DX001 (ip), vehicle: Klucel (hydroxypropylcellulose) (HPC)
  survivor count: 3 of 6

## C[N+]12CN3CN(CP(C3)C1)C2
[6]
  survivor count: 3 of 6
[7]
  survivor count: 0 of 6
[8]
  survivor count: 0 of 6

## CNc1nc2c(C)ccc3[nH]c(N(C)C)nc3c-2n1
dose: 200.0 mg/kg/injection, schedule: Q01DX005 (ip), vehicle: Klucel (hydroxypropylcellulose) (HPC)
  survivor count: 5 of 6

## COc1ccc2c(c1)-c1nn(CCCN(C)C)c3ccc([N+](=O)[O-])c(c13)N2
dose: 25.0 mg/kg/injection, schedule: Q01DX005 (ip), vehicle: water
  survivor count: 6 of 6
dose: 50.0 mg/kg/injection, schedule: Q01DX005 (ip), vehicle: water
  survivor count: 6 of 6
dose: 100.0 mg/kg/injection, schedule: Q01DX005 (ip), vehicle: water
  survivor count: 6 of 6

## CC(C)=CC(=O)OC1C2C(C)=CC(=O)C(O)C2(C)C2C3(O)OCC24C(CC(=O)OC14)C(C)C3O (stereo unspecified)
dose: 0.25 mg/kg/injection, schedule: Q01DX009 (ip), vehicle: distilled water + Tween-80
  T/C: 145 % of control
dose: 0.5 mg/kg/injection, schedule: Q01DX009 (ip), vehicle: distilled water + Tween-80
  T/C: 135 % of control
dose: 1.0 mg/kg/injection, schedule: Q01DX009 (ip), vehicle: distilled water + Tween-80
  T/C: 148 % of control [5 of 6 alive]
dose: 2.0 mg/kg/injection, schedule: Q01DX009 (ip), vehicle: distilled water + Tween-80
  T/C: 145 % of control [4 of 6 alive]
dose: 4.0 mg/kg/injection, schedule: Q01DX009 (ip), vehicle: distilled water + Tween-80
  survivor count: 1 of 6 and 4 of 6
dose: 8.0 mg/kg/injection, schedule: Q01DX009 (ip), vehicle: distilled water + Tween-80
  survivor count: 0 of 6

## Cn1c(NCc2ccccc2)cc(=O)n(C)c1=O
dose: 62.5 mg/kg/injection, schedule: Q01DX009 (ip), vehicle: saline with Tween-80
  survivor count: 0 of 6
dose: 125.0 mg/kg/injection, schedule: Q01DX009 (ip), vehicle: saline with Tween-80
  survivor count: 0 of 6
dose: 250.0 mg/kg/injection, schedule: Q01DX009 (ip), vehicle: saline with Tween-80
  survivor count: 0 of 6

## Cc1cc(Br)c2nsnc2c1[N+](=O)[O-]
[2]
  T/C: 125 % of control
[3]
  T/C: 125 % of control

## CCCCCSCN(CC)CC
dose: 50.0 mg/kg/injection, schedule: Q01DX009 (ip), vehicle: saline with Tween-80
  survivor count: 6 of 6
dose: 100.0 mg/kg/injection, schedule: Q01DX009 (ip), vehicle: saline with Tween-80
  survivor count: 6 of 6

## CC1=C(Cl)C(=O)c2c(O)cccc2C1=O
dose: 7.0 mg/kg/injection, schedule: Q01DX005 (ip), vehicle: Klucel + Tween-80
  survivor count: 5 of 6
dose: 8.0 mg/kg/injection, schedule: Q01DX005 (ip), vehicle: Klucel + Tween-80
  survivor count: 0 of 6
dose: 14.0 mg/kg/injection, schedule: Q01DX005 (ip), vehicle: Klucel + Tween-80
  survivor count: 0 of 6
dose: 28.0 mg/kg/injection, schedule: Q01DX005 (ip), vehicle: Klucel + Tween-80
  survivor count: 0 of 6
dose: 56.0 mg/kg/injection, schedule: Q01DX005 (ip), vehicle: Klucel + Tween-80
  survivor count: 0 of 6

## CCc1ccc(/C=C/c2ccc(O)c3ncccc23)[n+](C)c1
dose: 4.0 mg/kg/injection, schedule: Q01DX009 (ip), vehicle: saline
  T/C: 127 % of control
[9]
  T/C: 131 % of control
dose: 16.0 mg/kg/injection, schedule: Q01DX009 (ip), vehicle: saline
  T/C: 136 % of control
dose: 32.0 mg/kg/injection, schedule: Q04DX003 (ip), vehicle: saline with Tween-80
  survivor count: 6 of 6
dose: 64.0 mg/kg/injection, schedule: Q04DX003 (ip), vehicle: saline with Tween-80
  survivor count: 0 of 6
dose: 128.0 mg/kg/injection, schedule: Q04DX003 (ip), vehicle: saline with Tween-80
  survivor count: 0 of 6

## O=C1C(CC=C(Cl)Cl)=C(OC2OC(CO)C(O)C(O)C2O)C(=O)c2ccccc21 (stereo unspecified)
dose: 25.0 mg/kg/injection, schedule: Q01DX009 (ip), vehicle: saline with Tween-80
  survivor count: 5 of 6

## COC(=O)C(CO)NC(=O)OCc1ccccc1 (stereo unspecified)
dose: 400.0 mg/kg/injection, schedule: Q01DX005 (ip), vehicle: water
  survivor count: 2 of 6

## CS(=O)(=O)OCc1ccc(COS(C)(=O)=O)cc1
dose: 25.0 mg/kg/injection, schedule: Q04DX003 (ip), vehicle: Klucel (hydroxypropylcellulose) (HPC)
  T/C: 131 % of control
[10]
  T/C: 104, 116, 119 % of control
  survivor count: 6 of 6
[11]
  T/C: 107, 109, 114 % of control
  survivor count: 2 of 6, 3 of 6, 6 of 6
[12]
  T/C: 97 and 121 % of control
  survivor count: 0 of 6, 1 of 6, 4 of 6
[4]
  T/C: 96 and 125 % of control
  survivor count: 0 of 6 (2×)
dose: 600.0 mg/kg/injection, schedule: Q04DX003 (ip), vehicle: Klucel (hydroxypropylcellulose) (HPC)
  survivor count: 0 of 6

## Nc1cccc2c1-c1ccccc1C2=O
[1]
  survivor count: 5 of 5
[3]
  survivor count: 5 of 5

## CC1=C(C)C(=O)O[C@@H]([C@](C)(O)[C@]2(O)CC[C@@]3(O)[C@@H]4C[C@H]5O[C@]56[C@@H](O)C=CC(=O)[C@]6(C)[C@H]4CC[C@]23C)C1
dose: 8.0 mg/kg/injection, schedule: Q01DX005 (ip), vehicle: saline
  T/C: 125 % of control
[9]
  T/C: 132 % of control
dose: 16.0 mg/kg/injection, schedule: Q01DX005 (ip), vehicle: distilled water + Tween-80
  T/C: 125 % of control
dose: 32.0 mg/kg/injection, schedule: Q01DX005 (ip), vehicle: distilled water + Tween-80
  survivor count: 3 of 6
dose: 32.0 mg/kg/injection, schedule: Q01DX005 (ip), vehicle: saline
  T/C: 125 % of control
dose: 64.0 mg/kg/injection, schedule: Q01DX005 (ip), vehicle: distilled water + Tween-80
  survivor count: 1 of 6
dose: 64.0 mg/kg/injection, schedule: Q01DX009 (ip), vehicle: saline
  survivor count: 2 of 6

## Nc1nc(N)nc(N)n1
dose: 1600.0 mg/kg/injection, schedule: Q01DX009 (ip), vehicle: saline with Tween-80
  survivor count: 6 of 10

## O=c1[nH]c(=O)c2sc3ncccc3c2[nH]1
[6]
  survivor count: 0 of 6
[7]
  survivor count: 0 of 6
[8]
  survivor count: 0 of 6

## O=C1CC(c2ccccc2)Oc2cc(O)cc(O)c21 (stereo unspecified)
[5]
  survivor count: 6 of 6
dose: 100.0 mg/kg/injection, schedule: Q01DX009 (ip), vehicle: other
  survivor count: 3 of 6

— PubChem BioAssay AID330 (DTP/NCI, 2004)
